Assay results as given in patent US20090156489A1.
Results are given in words; binding and its absence hold for the method and conditions named. For some assays here: In cells and extracts the contact can be indirect. Some entries that bind do so weakly or less than the wild type.

By UniProt entry, the sequences of proteins in these tests, tags left out. Where a name states a change or a piece, a line headed by the entry shows the natural chain unless it says otherwise. Chains listed by the source or under a name are the forms on record and can include a tag or linker. Residues count along the entry.
UniProt P14210, residues 32-728: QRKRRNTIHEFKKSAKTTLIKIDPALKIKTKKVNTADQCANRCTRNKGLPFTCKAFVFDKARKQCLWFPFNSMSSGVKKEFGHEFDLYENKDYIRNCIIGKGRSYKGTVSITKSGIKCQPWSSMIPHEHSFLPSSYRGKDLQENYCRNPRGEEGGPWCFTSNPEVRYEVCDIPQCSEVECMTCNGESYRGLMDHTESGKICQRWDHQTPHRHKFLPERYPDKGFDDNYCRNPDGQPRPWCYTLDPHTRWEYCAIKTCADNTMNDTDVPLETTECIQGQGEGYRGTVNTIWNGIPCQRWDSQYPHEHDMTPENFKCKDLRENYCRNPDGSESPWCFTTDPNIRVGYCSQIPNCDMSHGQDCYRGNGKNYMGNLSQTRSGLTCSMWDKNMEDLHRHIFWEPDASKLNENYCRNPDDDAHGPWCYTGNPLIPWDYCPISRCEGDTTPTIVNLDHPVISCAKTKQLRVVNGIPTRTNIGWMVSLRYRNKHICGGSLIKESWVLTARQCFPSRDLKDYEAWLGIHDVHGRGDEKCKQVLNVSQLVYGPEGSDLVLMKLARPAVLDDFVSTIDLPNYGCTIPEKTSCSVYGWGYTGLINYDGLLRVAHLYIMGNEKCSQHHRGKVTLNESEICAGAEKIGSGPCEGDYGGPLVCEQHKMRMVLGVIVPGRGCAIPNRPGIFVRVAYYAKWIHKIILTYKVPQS
UniProt P08581, residues 25-932: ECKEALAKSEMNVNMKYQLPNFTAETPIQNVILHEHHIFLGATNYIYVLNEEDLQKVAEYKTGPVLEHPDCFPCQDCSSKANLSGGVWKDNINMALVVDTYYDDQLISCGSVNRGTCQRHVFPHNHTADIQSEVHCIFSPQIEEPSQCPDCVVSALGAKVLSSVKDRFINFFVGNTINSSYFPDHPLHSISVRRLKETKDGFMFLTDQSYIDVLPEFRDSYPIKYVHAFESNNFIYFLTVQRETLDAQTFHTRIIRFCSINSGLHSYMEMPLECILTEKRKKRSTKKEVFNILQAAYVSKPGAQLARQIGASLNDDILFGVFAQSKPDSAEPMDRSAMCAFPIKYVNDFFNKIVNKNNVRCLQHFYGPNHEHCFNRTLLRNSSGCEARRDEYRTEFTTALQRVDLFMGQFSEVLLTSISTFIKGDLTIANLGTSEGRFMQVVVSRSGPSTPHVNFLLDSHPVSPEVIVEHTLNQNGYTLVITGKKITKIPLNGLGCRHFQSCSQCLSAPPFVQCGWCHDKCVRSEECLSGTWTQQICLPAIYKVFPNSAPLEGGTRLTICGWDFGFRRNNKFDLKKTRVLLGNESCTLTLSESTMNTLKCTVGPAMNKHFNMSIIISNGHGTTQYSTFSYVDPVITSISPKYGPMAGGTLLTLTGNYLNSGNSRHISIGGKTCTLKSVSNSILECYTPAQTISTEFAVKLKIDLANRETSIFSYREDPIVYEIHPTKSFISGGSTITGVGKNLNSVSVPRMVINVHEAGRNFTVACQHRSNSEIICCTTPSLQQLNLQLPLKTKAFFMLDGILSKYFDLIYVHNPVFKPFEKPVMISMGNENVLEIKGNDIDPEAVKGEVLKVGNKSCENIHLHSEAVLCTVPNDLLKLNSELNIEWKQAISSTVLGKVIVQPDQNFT
human Netrin-G1-Fc (Q9Y2I2, form named): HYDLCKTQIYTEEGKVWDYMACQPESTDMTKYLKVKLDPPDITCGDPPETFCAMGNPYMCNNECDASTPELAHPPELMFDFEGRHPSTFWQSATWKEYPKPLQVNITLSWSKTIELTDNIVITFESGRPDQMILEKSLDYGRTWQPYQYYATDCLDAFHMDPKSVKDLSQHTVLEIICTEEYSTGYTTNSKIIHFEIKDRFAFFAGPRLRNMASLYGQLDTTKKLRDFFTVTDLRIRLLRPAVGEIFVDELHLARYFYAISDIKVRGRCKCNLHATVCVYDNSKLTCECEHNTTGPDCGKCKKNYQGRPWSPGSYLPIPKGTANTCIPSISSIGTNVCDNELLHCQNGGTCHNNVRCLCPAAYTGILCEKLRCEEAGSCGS

Assays:
[1] = target: human HGF protein (human) (UniProt P14210); experiment: solution binding assay, protein A bead pull-down, blot
[2] = target: T1, human NGL-1 expressed on COS7 cells (human) (UniProt Q9HCJ2); experiment: cell surface binding assay on transfected COS7 cells
T1 sequence: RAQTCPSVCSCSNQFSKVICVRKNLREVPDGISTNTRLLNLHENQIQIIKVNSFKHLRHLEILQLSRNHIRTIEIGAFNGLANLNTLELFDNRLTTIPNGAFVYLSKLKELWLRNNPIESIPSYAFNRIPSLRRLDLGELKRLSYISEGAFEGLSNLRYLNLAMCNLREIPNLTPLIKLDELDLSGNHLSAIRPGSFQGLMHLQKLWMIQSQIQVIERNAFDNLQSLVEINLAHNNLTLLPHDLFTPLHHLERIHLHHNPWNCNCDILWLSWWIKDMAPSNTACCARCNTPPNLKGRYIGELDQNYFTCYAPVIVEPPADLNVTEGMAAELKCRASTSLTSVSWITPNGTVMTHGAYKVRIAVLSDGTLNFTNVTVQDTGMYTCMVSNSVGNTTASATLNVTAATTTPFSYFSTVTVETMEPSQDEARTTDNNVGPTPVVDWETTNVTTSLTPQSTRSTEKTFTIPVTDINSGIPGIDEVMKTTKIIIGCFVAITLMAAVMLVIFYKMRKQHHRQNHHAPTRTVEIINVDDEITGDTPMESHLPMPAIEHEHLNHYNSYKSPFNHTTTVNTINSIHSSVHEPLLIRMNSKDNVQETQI

binding [1]	binding [2]	Substance
binds		recombinant human cMet-Fc fusion protein (R&D Systems) (from UniProt P08581 25-932)
	binds	human Netrin-G1-Fc (from UniProt Q9Y2I2 29-409) (Fc fusion)
